Results reported in article PMC6330330.
Results are given in words; binding and its absence hold for the method and conditions named. Binding seen in cells or lysates may run through a third protein. Some entries that bind do so weakly or less than the wild type.

Sequences of proteins named here, by UniProt entry; tags and fusion partners are left off. Residues count along the entry.
UniProt Q00954, residues 19-218: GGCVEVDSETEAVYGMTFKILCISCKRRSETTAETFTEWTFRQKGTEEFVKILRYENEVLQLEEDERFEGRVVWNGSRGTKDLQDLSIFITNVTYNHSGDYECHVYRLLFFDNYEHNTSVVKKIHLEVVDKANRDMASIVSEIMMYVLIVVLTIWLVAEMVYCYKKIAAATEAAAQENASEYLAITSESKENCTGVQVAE
UniProt Q62968: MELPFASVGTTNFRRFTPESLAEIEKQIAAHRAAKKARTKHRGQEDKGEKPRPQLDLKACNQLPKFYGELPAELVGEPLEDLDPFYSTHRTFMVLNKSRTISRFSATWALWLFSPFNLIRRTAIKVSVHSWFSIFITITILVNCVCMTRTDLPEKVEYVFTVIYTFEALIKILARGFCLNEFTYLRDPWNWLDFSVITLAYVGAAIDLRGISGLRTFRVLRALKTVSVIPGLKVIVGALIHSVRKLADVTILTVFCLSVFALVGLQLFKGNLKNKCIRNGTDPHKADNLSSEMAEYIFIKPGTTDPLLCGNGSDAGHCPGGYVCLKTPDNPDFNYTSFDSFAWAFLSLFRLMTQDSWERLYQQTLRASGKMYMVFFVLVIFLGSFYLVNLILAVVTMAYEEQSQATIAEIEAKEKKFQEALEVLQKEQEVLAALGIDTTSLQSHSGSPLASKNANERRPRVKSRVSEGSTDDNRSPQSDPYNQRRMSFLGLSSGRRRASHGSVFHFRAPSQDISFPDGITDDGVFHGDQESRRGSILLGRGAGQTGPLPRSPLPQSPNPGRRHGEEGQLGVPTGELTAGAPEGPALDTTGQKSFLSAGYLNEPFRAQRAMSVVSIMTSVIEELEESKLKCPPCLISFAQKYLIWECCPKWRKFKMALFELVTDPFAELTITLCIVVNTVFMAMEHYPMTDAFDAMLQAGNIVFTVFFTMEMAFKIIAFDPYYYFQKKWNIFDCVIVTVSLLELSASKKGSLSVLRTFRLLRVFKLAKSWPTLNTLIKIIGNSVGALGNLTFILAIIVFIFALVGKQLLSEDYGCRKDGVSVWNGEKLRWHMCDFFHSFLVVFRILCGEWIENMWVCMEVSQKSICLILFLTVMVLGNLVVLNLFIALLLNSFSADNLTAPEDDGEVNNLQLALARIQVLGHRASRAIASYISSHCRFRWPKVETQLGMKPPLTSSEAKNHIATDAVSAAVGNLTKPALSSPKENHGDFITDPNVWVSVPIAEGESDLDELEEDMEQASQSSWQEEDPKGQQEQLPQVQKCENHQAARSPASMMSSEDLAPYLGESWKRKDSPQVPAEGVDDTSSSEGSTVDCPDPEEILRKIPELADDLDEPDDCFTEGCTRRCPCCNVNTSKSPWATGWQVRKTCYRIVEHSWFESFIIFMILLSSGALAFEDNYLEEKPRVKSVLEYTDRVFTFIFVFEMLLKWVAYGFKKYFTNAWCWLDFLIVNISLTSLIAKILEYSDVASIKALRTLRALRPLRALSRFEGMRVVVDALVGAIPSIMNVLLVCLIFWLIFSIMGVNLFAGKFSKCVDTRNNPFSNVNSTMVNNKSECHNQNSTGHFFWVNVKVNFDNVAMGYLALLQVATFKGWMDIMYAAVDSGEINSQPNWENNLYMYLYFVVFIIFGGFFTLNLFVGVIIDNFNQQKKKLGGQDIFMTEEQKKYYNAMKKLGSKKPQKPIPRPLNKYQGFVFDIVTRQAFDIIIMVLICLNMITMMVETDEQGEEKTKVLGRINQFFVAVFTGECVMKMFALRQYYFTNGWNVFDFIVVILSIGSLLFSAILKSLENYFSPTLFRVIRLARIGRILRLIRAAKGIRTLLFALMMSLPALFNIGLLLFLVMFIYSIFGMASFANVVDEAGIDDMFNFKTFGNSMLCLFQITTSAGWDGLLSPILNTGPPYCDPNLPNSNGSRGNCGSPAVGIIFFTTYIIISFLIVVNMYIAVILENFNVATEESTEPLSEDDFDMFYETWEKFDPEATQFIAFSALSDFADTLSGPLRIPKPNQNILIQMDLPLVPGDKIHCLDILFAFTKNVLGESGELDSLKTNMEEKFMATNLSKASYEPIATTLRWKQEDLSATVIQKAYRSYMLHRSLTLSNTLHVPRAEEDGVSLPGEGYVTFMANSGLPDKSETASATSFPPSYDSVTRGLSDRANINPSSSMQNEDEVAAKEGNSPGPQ

Molecular target: Nav β1 subunit (rat (endogenous in DRG)) (UniProt Q00954)
Experiment: co-IP; rat DRG protein extract (control and paclitaxel-treated rats) lysed in cold RIPA buffer (20 mM Tris-HCl pH 7.5, 150 mM NaCl, 0.1% Triton X-100, 1% sodium deoxycholate); precipitated with 1-5 ug Nav1.8 or Navβ1 antibody at 4°C overnight, protein A/G beads 4 h; immunoblot

binding: binds
Substance: Nav1.8 channel (from UniProt Q62968 1-1956)
